This note sets out measurements from the supplement of paper PMC10849652.

Amino acid sequences for entries named in this document (tags omitted). A change or cut given only in a name is not applied to a line headed by its entry.
UniProt Q9NR46: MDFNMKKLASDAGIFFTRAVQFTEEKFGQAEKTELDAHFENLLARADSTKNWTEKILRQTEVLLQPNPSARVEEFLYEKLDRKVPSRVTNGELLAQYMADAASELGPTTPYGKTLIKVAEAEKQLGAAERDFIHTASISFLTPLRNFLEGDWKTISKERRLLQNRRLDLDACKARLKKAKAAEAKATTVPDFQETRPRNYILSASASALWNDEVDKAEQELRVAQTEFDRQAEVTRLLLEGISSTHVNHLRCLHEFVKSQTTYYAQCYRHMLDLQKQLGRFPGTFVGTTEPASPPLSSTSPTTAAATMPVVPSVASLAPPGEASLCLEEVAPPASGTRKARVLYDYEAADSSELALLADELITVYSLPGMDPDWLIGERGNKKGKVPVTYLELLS
UniProt A1X283: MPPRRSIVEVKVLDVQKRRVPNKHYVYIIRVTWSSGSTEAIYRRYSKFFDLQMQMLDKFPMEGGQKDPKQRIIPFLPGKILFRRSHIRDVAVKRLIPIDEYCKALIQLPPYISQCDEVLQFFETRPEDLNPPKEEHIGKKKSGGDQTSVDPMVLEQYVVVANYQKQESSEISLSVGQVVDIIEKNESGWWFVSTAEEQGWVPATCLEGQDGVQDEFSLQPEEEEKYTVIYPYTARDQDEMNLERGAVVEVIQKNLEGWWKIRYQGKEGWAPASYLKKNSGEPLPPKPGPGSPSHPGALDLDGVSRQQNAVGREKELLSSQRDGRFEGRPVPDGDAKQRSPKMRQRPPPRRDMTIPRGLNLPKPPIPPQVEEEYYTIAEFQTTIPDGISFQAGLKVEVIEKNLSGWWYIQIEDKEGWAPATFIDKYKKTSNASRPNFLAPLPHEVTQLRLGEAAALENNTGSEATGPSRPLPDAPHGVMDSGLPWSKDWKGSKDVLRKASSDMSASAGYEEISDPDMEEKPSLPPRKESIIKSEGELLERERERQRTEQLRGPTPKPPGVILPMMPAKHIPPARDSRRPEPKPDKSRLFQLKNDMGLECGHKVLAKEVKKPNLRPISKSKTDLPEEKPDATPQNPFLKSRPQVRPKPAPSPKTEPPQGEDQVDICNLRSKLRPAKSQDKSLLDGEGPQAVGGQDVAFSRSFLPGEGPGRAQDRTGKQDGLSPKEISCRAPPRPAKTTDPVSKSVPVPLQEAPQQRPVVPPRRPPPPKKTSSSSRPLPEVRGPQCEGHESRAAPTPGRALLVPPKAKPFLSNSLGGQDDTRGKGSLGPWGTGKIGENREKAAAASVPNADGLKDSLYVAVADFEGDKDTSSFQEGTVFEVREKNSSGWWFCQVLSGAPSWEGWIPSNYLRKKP
UniProt O43255: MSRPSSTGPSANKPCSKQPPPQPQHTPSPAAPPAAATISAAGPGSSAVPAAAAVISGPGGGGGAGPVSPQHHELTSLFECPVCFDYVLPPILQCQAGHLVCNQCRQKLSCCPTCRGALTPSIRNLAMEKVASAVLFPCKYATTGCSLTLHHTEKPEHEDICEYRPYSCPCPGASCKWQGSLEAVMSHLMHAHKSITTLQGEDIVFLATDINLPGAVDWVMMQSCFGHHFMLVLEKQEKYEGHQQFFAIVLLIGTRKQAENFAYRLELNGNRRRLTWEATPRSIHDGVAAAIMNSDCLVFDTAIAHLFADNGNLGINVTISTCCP

This is one part of the list.

What all share (assay): log2 fold change, soluble protein after heating vs DMSO (PISA); higher = thermal stabilisation; K562 cells, 10 uM, 30 min; active = over 0.2 and 3.5 SD of the protein, either way, in both replicates (recomputed)
Compound in experiment [1]: CC[C@@H]1C(=O)N(C)c2cnc(Nc3ccc(C(=O)NC4CCN(C)CC4)cc3OC)nc2N1C1CCCC1
In outline: (§1)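 For each measurement, 10 μM compound was applied for 30 min to K562 cells at 2×10^6 cells/mL. Aliquots were heated for 3 min across 48°C-58°C, pooled, and extracted in PBS with 0.5% NP-40 at 4°C; the supernatant after 21,000xg for 90 min was soluble protein. This was quantified by TMTpro 16plex LC-MS/MS with channel sums equalised, and thermal stability was reported relative to control samples from duplicates, on a log2 fold-change scale.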

Compound in a further experiment: CC[C@@H]1C(=O)N(C)c2cnc(Nc3ccc(C(=O)N[C@H]4CC[C@H](N5CCN(CC6CC6)CC5)CC4)cc3OC)nc2N1C(C)C [volasertib]
In outline: as §1

Compound in experiment [2]: CC[C@H](C)N1C=C(C2=C(C=C(C=C21)C3=CN=C(C=C3)N4CCNCC4)C(=O)NCC5=C(C=C(NC5=O)C)C)C
In outline: as §1

Compound in another experiment: CC[C@H](C)[C@@H](C(=O)N[C@@H]([C@@H](C)O)C(=O)N[C@@H](CC(C)C)C(=O)[C@]1(CO1)C)NC(=O)[C@H]([C@@H](C)CC)N(C)C(=O)C [epoxomicin]
In outline: as §1

Compound in experiment [3]: CCn1cc(-c2ccnc3[nH]c(-c4cccc(CN(C)C)c4)cc23)c(-c2ccc(NC(=O)N(C)C)cc2)n1
In outline: as §1

Compound in experiment [4]: CN(C)CC(=O)Nc1ccc2[nH]c(=O)c3ccccc3c2c1
In outline: as §1

Compound in experiment [5]: CN1C2=C(C3=C1C(=O)N(N=C3)CC4=CC(=CC=C4)N)SC(=C2)S(=O)C
In outline:
as §1

Compound in experiment [6]: CN1CCC(CNc2ccc3ncc(-c4cccc(OC(F)(F)F)c4)n3n2)CC1
In outline:
as §1

Compound in another experiment: CN1CCN(CCOc2cc(OC3CCOCC3)c3c(Nc4c(Cl)ccc5c4OCO5)ncnc3c2)CC1 [saracatinib]
In outline:
as §1

Compound in the next experiment: CN1CCN(c2nc(C3=C(c4c[nH]c5ccccc45)C(=O)NC3=O)c3ccccc3n2)CC1 [sotrastaurin]
In outline: as §1

Compound in the next experiment: CN1CCc2c(c3ccccc3n2Cc2ccc(C(=O)NO)cc2)C1 [Tubastatin A]
In outline:
as §1

Compound in experiment [7]: CNC(=O)C1=CC=CC=C1NC2=NC(=NC=C2Cl)NC3=C(C=C(C=C3)N4CCOCC4)OC
In outline:
as §1

Compound in another experiment: CNC(=O)c1ccc(Nc2ncc(C(F)(F)F)c(NCc3nccnc3N(C)S(C)(=O)=O)n2)cc1 [defactinib]
In outline: as §1

Compound in another experiment: CNCc1ccc(-c2[nH]c3cc(F)cc4c3c2CCNC4=O)cc1 [rucaparib]
In outline:
as §1

Compound in experiment [8]: CNc1nc(-c2ccc3c(N)n[nH]c3c2)cc(N2C[C@@H](C(=O)NC3CCCCC3)CC[C@H]2C)n1
In outline:
as §1

Compound in a further experiment: COC(=O)N[C@@H](C)CNc1nccc(-c2cn(C(C)C)nc2-c2cc(Cl)cc(NS(C)(=O)=O)c2F)n1 [encorafenib]
In outline:
as §1

Compound in experiment [9]: COC(=O)[C@H](CCSC)NC(=O)C1=C(C=C(C=C1)NC[C@H](CS)N)C2=CC=CC=C2
In outline: as §1

Compound in another experiment: CN(CCOC1=CC=C(C=C1)C[C@H]2C(=O)NC(=O)S2)C3=CC=CC=N3 (racemic) [rosiglitazone]
In outline:
as §1

Compound in the next experiment: CN1CC[C@H](c2c(O)cc(O)c3c(=O)cc(-c4ccccc4Cl)oc23)[C@H](O)C1 [alvocidib]
In outline:
as §1

Take SH3GLB2 (UniProt Q9NR46): the log2 fold change in experiment [1] is inactive: -0.148; with volasertib it was active: -0.378; in [2] it was inactive: 0.072; with epoxomicin, inactive: 0.041; in experiment [3], inactive: -0.101; in experiment [4], inactive: 0.033. Moreover, the log2 fold change in experiment [5] was inactive: 0.016; in [6] it was inactive: -0.254; in the experiment with saracatinib it was inactive: -0.059; with sotrastaurin it was inactive: -0.08; with Tubastatin A it was inactive: 0.024; in experiment [7], inactive: -0.048. The log2 fold change with defactinib is inactive: -0.148; with rucaparib, inactive: 0.042; in [8], inactive: -0.02; in the experiment with encorafenib, inactive: 0.029; in [9] it was inactive: -0.086.

Turning to SH3PXD2B (UniProt A1X283), the log2 fold change in experiment [1] is active: -2.01; in [2], inactive: -0.068; in the experiment with epoxomicin, inactive: 0.048; in [3], inactive: 0.097; in experiment [4] it was inactive: -0.019; in experiment [6], active: -1.2. The log2 fold change in the experiment with sotrastaurin is inactive: -0.017; in the experiment with Tubastatin A it was inactive: -0.013; in experiment [7] it was inactive: 0.061; with defactinib, inactive: 0.013; in the experiment with rucaparib it was inactive: 0.238; in the experiment with encorafenib, inactive: 0.011. The log2 fold change in experiment [9] is inactive: 0.359.

Consider SIAH2 (UniProt O43255), for which the log2 fold change in [1] was inactive: 0.011; with volasertib, inactive: -0.097; in experiment [2] it was inactive: 0.01; in [4], inactive: -0.061; with rosiglitazone, inactive: 0.036; with alvocidib it was inactive: 0.03. In addition, the log2 fold change was inactive: 0.025 with defactinib, inactive: -0.041 with rucaparib, inactive: 0.02 with encorafenib and inactive: -0.055 in experiment [9].
